In PubChem BioAssay (NCATS):
The inconclusive results got no clear call from the source; some entries with a clear call stand among them for comparison. A potency beside an inconclusive call is a rough fit, not a confirmed value. Calls of active or inactive are those of the source. The call rests on the fitted dose curve; in most records, active means well fitted cell-killing curve with a large enough effect; inconclusive means small, poorly fitted or top-dose-only effect, or effect the other way; inactive means no such curve, though single readings can be large or run the other way.

Experiment: Quantitative High-Throughput drug screen in 47 multiple myeloma cell lines against the NCATS MIPE library collection: ARD_JJKsccE7 cell viability assay (AID 1918929)
Conditions: ARD myeloma cell line viability, CellTiter-Glo, 48 h; viability: at 45.8 µM (top of the series)
Procedure, shortened: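 Primary qHTS used for cherry-picking: cells at 500/well, library compounds for 48 h (37C, 5% CO2), luminescent ATP assay.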
Potency means the concentration at half of the fitted maximal effect.

| SMILES | Potency |
| --- | --- |
| NC(=O)c1cccnc1 | inactive |
| Nc1ccn(C2CO[C@H](CO)O2)c(=O)n1 (some centres undefined) | inactive |
| Cc1cnc(NC(=O)C2=C(O)c3ccccc3S(=O)(=O)N2C)s1 | inconclusive: 14.8 µM [cytotoxic, partial curve, poor fit] |
| C[C@]12CCC(=O)C=C1CC[C@@H]1[C@H]2[C@@H](O)C[C@@]2(C)[C@H]1CC[C@]2(O)C(=O)CO | active: 0.0118 µM |
| COc1c2occc2cc2ccc(=O)oc12 | inconclusive: 1.87 µM [cytotoxic, partial curve, poor fit] |
| Clc1cccc(Cl)c1NC1=NCCN1 | inconclusive: 0.0209 µM [cytotoxic, full curve, poor fit] |
| N[C@@H](C(=O)N[C@@H]1C(=O)N2C(C(=O)O)=C(Cl)CS[C@H]12)c1ccccc1 | inactive |
| COc1ccc2ccc(=O)oc2c1CC=C(C)C | inconclusive: 11.8 µM [cytotoxic, full curve] |
| C[C@@H](O)[C@H]1C(=O)N2C(C(=O)OCOC(=O)C(C)(C)C)=C(SC3CN(C4=NCCS4)C3)[C@H](C)[C@H]12 | inactive |
| C[C@@H](NCc1cc2ccccc2[nH]1)c1cccc2ccccc12 | inconclusive: 29.6 µM [cytotoxic, single point] |
| CCc1c2c(nc3ccc(OC(=O)N4CCC(N5CCCCC5)CC4)cc13)-c1cc3c(c(=O)n1C2)COC(=O)[C@]3(O)CC | active: 0.0105 µM |
| CCC[C@H]1C[C@H](C(=O)N[C@@H]([C@@H]2O[C@@H](SC)[C@@H](O)[C@@H](O)[C@@H]2O)[C@H](C)Cl)N(C)C1 | inconclusive: 0.0026 µM [cytotoxic, full curve, poor fit] |
| CC(=O)N1CCN(c2ccc(OC[C@H]3CO[C@](Cn4ccnc4)(c4ccc(Cl)cc4Cl)O3)cc2)CC1 | inconclusive: 4.18 µM [cytotoxic, partial curve, poor fit] |
| Cc1cc2nc3c(=O)[nH]c(=O)nc-3n(CC(O)C(O)C(O)CO)c2cc1C (centres undefined) | inconclusive: 37.2 µM [cytotoxic, single point] |
| CCCCC(=O)O[C@]1(C(=O)CO)[C@@H](C)C[C@H]2[C@@H]3CCC4=CC(=O)C=C[C@]4(C)[C@@]3(F)[C@@H](O)C[C@@]21C | inconclusive: 0.148 µM [cytotoxic, full curve] |
| CCCCOCCOc1nc(-c2ccc(C(=O)O)c(F)c2)sc1C | inconclusive: 6.62 µM [cytotoxic, partial curve, poor fit] |
| O=C(C[C@@H]1CC=CCCC(=O)O[C@H](c2ccccc2)CNC1=O)NCc1ccc(Cl)cc1 | inconclusive: 3.32 µM [cytotoxic, partial curve, poor fit] |

Experiment: Quantitative High-Throughput drug screen in 47 multiple myeloma cell lines against the NCATS MIPE library collection: Karpas620_DSMZ cell viability assay (AID 1918959); further: nearly all actives have a fitted effect of over 30% in size
Conditions: Karpas620 myeloma viability, CellTiter-Glo ATP luminescence, 48 h; viability (% of DMSO): at 45.8 µM (top of the series)
Procedure, shortened: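 qHTS of the MIPE 4.0 collection: 500 myeloma cells/well, 48 h drug exposure at 37C in 5% CO2, then CellTiter-Glo for 5 min at room temperature before luminescence reading.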

| SMILES | Potency |
| --- | --- |
| NC(=O)c1cccnc1 | inactive |
| C1COC(NC(C2CC2)C2CC2)=N1 | inconclusive: 20.9 µM [cytotoxic, partial curve] |
| Cn1c(NCCN(CCO)CCCc2ccc([N+](=O)[O-])cc2)cc(=O)n(C)c1=O | inconclusive: 33.2 µM [cytotoxic, single point] |
| C[C@@H](O)[C@H]1C(=O)N2C(C(=O)OCOC(=O)C(C)(C)C)=C(SC3CN(C4=NCCS4)C3)[C@H](C)[C@H]12 | inactive |
| C[C@@H](NCc1cc2ccccc2[nH]1)c1cccc2ccccc12 | inconclusive: 33.2 µM [cytotoxic, single point] |
| CCc1c2c(nc3ccc(OC(=O)N4CCC(N5CCCCC5)CC4)cc13)-c1cc3c(c(=O)n1C2)COC(=O)[C@]3(O)CC | inconclusive: 0.418 µM [cytotoxic, full curve, poor fit] |
| Cc1cc2nc3c(=O)[nH]c(=O)nc-3n(CC(O)C(O)C(O)CO)c2cc1C (centres undefined) | inconclusive: 0.0148 µM [cytotoxic, full curve, poor fit] |
| CC(c1cc2ccccc2s1)N(O)C(N)=O (centres undefined) | inconclusive: 1.05 µM [cytotoxic, partial curve, poor fit] |
| COc1cc(-c2nn(C3CCC(N4CCN(C(C)=O)CC4)CC3)c3ncnc(N)c23)ccc1NC(=O)c1cc2ccccc2n1C (centres undefined) | inconclusive: 0.264 µM [cytotoxic, full curve, poor fit] |
| Clc1ccc(COC(Cn2ccnc2)c2ccc(Cl)cc2Cl)c(Cl)c1 (centres undefined) | active: 20.9 µM |
| CCCCN(CCCC)CC(O)c1cc(Cl)cc2c1-c1ccc(Cl)cc1C2=Cc1ccc(Cl)cc1 (centres undefined) | inactive |

Experiment: Quantitative High-Throughput drug screen in 47 multiple myeloma cell lines against the NCATS MIPE library collection: KMM1_JCRB cell viability assay (AID 1918960); further: nearly all actives have a fitted effect of over 30% in size
Conditions: KMM1 myeloma viability, CellTiter-Glo ATP luminescence, 48 h; viability (% of DMSO): at 45.8 µM (top of the series)
Procedure, shortened: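 500 cells/well; MIPE 4.0 library pinned in; 48 h, 37 °C, 5% CO2; CellTiter-Glo ATP luminescence. Controls: DMSO = 100% viability, medium only = 0%.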

| SMILES | Potency |
| --- | --- |
| NC(=O)c1cccnc1 | inactive |
| CC(=O)NCCC(=O)N[C@@H](CCC(N)=O)C(=O)N[C@@H](CO)C(=O)N[C@@H](CCC(N)=O)C(=O)N[C@@H](CCC(N)=O)C(=O)N[C@H](C(=O)N[C@@H](Cc1ccccc1)C(=O)N[C@]1(C)CCCCCCC=CCCC[C@@](C)(C(=O)N[C@@H](CCC(N)=O)C(=O)N[C@@H](CC(N)=O)C(N)=O)NC(=O)[C@H](CC(C)C)NC(=O)[C@H](CC(C)C)NC(=O)[C@@H](CCCNC(=N)N)NC(=O)[C@H](Cc2c[nH]c3ccccc23)NC(=O)[C@H](CC(C)C)NC(=O)[C@H](CC(N)=O)NC1=O)[C@H](C)O | inactive |
| C1COC(NC(C2CC2)C2CC2)=N1 | inconclusive: 33.2 µM [cytotoxic, single point] |
| C[C@]12CCC(=O)C=C1CC[C@@H]1[C@H]2[C@@H](O)C[C@@]2(C)[C@H]1CC[C@]2(O)C(=O)CO | inconclusive: 0.0118 µM [cytotoxic, full curve, poor fit] |
| COc1c2occc2cc2ccc(=O)oc12 | inactive |
| NS(=O)(=O)c1cc2c(cc1Cl)NC(C(Cl)Cl)NS2(=O)=O (centres undefined) | inactive |
| Cn1c(NCCN(CCO)CCCc2ccc([N+](=O)[O-])cc2)cc(=O)n(C)c1=O | inconclusive: 23.5 µM [cytotoxic, single point] |
| N[C@@H](C(=O)N[C@@H]1C(=O)N2C(C(=O)O)=C(Cl)CS[C@H]12)c1ccccc1 | inactive |
| COc1ccc2ccc(=O)oc2c1CC=C(C)C | inconclusive: 13.2 µM [cytotoxic, partial curve] |
| COc1cc2ncn(-c3cc(OCc4ccccc4S(C)(=O)=O)c(C#N)s3)c2cc1OC | inactive |
| C[C@@H](O)[C@H]1C(=O)N2C(C(=O)OCOC(=O)C(C)(C)C)=C(SC3CN(C4=NCCS4)C3)[C@H](C)[C@H]12 | inconclusive: 29.6 µM [cytotoxic, single point] |
| CC(=O)Nc1cccc(-n2c(=O)n(C3CC3)c(=O)c3c(Nc4ccc(I)cc4F)n(C)c(=O)c(C)c32)c1 | active: 0.0935 µM |
| C[C@@H](NCc1cc2ccccc2[nH]1)c1cccc2ccccc12 | inconclusive: 20.9 µM [cytotoxic, partial curve] |
| CC(=O)N1CCN(c2ccc(OC[C@H]3CO[C@](Cn4ccnc4)(c4ccc(Cl)cc4Cl)O3)cc2)CC1 | active: 5.26 µM |
| Cc1cc2nc3c(=O)[nH]c(=O)nc-3n(CC(O)C(O)C(O)CO)c2cc1C (centres undefined) | inconclusive: 0.059 µM [cytotoxic, full curve, poor fit] |
| COc1cc(-c2nn(C3CCC(N4CCN(C(C)=O)CC4)CC3)c3ncnc(N)c23)ccc1NC(=O)c1cc2ccccc2n1C (centres undefined) | active: 0.372 µM |
| Nc1nc(=O)n([C@H]2CSC(CO)O2)cc1F (some centres undefined) | inactive |
| CO[C@H]1/C=C\O[C@@]2(C)Oc3c(C)c(O)c4c(O)c(c(C=NN5CCN(C6CCCC6)CC5)c(O)c4c3C2=O)NC(=O)C(C)=CC=C[C@H](C)[C@H](O)[C@@H](C)[C@@H](O)[C@@H](C)[C@H](OC(C)=O)[C@H]1C | inconclusive: 0.332 µM [cytotoxic, full curve] |
| CCCCN(CCCC)CC(O)c1cc(Cl)cc2c1-c1ccc(Cl)cc1C2=Cc1ccc(Cl)cc1 (centres undefined) | inconclusive: 18.7 µM [cytotoxic, single point] |
| CCCCC(=O)O[C@]1(C(=O)CO)[C@@H](C)C[C@H]2[C@@H]3CCC4=CC(=O)C=C[C@]4(C)[C@@]3(F)[C@@H](O)C[C@@]21C | inconclusive: 0.0332 µM [cytotoxic, full curve] |
| CCCCOCCOc1nc(-c2ccc(C(=O)O)c(F)c2)sc1C | inactive |
